Laboratory results published in paper PMC11946513, “Modulation of the substrate preference of a MYST acetyltransferase by a scaffold protein” (The Journal of Biological Chemistry, 2025).
“And” between values parts separate entries of the source, which are not always exact repeats. Equal entries are not always repeated. The match of structure and compound is tentative.

Amino acid sequences for entries named in this document (tags omitted). Residues count along the entry.
UniProt P55201, whole entry partner: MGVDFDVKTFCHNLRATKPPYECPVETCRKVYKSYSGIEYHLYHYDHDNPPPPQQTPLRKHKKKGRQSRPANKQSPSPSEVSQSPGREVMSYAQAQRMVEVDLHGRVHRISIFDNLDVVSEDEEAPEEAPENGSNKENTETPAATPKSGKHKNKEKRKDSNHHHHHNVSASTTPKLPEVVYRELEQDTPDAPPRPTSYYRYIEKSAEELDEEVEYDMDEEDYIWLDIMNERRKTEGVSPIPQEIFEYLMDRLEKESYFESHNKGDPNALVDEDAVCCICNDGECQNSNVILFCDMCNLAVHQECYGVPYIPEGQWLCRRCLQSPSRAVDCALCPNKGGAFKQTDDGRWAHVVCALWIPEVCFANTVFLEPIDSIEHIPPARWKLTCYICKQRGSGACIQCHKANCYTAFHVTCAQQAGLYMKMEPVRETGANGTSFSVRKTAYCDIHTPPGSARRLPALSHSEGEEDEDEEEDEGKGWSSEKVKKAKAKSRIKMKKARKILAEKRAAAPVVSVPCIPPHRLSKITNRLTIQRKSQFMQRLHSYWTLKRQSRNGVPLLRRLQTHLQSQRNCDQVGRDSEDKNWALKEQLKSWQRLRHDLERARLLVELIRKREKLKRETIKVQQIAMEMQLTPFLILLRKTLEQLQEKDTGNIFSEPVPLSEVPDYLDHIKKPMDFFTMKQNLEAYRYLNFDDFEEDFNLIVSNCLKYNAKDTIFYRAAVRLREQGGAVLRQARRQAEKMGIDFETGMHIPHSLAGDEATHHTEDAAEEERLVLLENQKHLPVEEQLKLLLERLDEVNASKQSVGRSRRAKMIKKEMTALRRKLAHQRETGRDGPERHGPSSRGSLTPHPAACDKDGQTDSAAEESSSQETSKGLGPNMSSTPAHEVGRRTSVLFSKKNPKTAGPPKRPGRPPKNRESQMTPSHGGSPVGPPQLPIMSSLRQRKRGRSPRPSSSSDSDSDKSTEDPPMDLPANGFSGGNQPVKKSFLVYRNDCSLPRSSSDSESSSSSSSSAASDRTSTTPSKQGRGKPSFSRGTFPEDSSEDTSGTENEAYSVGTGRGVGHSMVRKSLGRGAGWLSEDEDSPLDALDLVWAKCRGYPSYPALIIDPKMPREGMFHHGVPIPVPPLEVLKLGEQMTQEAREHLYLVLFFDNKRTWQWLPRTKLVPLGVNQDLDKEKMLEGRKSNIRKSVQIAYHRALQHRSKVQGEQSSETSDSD
UniProt Q92794, whole entry: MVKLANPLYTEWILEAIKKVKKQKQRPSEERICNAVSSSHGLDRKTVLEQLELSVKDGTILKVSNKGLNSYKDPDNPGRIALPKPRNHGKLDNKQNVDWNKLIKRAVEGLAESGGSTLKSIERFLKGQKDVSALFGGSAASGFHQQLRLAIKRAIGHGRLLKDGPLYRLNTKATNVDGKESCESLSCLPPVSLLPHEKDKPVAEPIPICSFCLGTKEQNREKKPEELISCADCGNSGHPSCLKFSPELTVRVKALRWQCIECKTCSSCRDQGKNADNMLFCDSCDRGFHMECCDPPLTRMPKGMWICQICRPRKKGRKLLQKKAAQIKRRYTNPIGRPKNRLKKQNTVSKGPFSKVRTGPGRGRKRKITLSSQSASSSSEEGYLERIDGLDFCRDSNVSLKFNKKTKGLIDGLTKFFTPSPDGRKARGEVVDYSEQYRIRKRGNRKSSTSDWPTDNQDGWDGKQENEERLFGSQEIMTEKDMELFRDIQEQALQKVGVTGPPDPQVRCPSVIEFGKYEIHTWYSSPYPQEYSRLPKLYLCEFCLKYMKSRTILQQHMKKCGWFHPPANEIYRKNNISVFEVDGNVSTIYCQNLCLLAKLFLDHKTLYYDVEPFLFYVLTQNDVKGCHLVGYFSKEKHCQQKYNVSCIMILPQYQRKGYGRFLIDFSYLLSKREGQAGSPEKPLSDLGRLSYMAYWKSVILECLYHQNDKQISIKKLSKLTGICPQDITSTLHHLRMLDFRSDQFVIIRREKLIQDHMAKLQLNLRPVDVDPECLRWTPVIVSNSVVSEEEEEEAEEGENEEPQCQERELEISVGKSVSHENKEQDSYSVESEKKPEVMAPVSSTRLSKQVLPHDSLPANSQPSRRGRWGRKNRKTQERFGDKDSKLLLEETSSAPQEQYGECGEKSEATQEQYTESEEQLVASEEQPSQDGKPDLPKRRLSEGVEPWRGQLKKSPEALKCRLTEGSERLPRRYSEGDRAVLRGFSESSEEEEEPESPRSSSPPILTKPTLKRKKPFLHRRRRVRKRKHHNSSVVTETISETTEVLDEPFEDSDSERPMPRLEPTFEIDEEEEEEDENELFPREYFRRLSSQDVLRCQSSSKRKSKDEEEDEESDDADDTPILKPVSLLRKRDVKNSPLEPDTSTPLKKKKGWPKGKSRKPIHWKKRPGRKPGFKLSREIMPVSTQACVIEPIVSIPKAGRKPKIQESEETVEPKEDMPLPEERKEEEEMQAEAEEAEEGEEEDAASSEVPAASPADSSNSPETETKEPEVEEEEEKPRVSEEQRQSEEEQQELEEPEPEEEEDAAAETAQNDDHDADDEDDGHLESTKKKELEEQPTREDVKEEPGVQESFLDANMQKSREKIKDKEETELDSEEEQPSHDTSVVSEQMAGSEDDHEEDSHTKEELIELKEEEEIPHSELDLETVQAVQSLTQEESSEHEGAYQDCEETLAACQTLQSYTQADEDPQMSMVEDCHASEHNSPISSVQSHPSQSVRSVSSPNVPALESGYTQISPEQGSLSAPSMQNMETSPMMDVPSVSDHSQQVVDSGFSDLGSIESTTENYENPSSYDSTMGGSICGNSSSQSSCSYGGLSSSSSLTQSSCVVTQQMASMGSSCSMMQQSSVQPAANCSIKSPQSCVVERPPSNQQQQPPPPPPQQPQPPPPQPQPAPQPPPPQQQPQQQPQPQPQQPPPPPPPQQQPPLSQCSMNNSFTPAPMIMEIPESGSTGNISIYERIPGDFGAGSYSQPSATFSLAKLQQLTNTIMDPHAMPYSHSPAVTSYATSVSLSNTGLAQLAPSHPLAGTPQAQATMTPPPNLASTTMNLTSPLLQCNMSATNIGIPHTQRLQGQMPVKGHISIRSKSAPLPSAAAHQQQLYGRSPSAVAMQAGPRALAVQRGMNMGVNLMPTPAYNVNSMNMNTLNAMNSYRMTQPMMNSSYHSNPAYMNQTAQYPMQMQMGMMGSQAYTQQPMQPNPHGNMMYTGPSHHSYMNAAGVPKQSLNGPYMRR
UniProt Q92794, 501-784 limits assumed: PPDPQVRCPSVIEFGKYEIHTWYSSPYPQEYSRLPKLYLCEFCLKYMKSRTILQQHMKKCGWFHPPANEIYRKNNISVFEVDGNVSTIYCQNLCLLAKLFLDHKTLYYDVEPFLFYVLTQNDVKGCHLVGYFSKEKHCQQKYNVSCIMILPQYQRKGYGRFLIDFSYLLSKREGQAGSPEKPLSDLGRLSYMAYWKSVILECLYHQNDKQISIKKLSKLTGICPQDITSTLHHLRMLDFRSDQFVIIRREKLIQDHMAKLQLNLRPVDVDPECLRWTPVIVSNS
UniProt Q8WYH8, whole entry partner: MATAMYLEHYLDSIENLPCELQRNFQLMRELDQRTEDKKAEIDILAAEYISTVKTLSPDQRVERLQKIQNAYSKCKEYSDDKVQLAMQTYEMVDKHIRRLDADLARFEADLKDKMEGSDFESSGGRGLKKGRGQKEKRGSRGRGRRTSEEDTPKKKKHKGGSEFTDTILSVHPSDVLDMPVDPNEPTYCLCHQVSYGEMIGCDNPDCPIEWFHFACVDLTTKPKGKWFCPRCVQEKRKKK

Key:
[1] = molecular target: KAT6A^FL-BRPF1 2-protein complex (KAT6A^FL 2-plex) (Homo sapiens, UniProt P55201+Q92794); assay: Steady-state acetyltransferase assay with H3 peptides, KAT6A^FL 2-plex; settings: for (kcat/KM)^app: 50 mM HEPES pH 7.5, 5 mM NaCl, 0.1 mM EDTA, 0.002% Tween-20, 20 μM AcCoA, 25 °C, average ± SD of 2 measurements, apparent value; for Km / kcatapp: conditions as E13; for fold-change in (kcat/KM)^app for H3.3 (15-36) versus H3 (1-21) or H3 (19-26) versus H3 (10-17): values in parentheses of Table 3
Protocol: (§1) All reactions were multiple-turnover, with substrates in excess (≥10-fold) of enzyme and, unless otherwise stated, were measured at 25 °C in the presence of 50 mM HEPES (pH 7.5), 5 mM NaCl, 0.1 mM EDTA, and 0.002% Tween-20. Enzyme and peptide were allowed to incubate at 25 °C for 10 min before initiating the reaction by adding AcCoA (20 μM). At various times, eight 2 μl aliquots were collected and transferred to 50 μl of 1% formic acid to quench the reaction. Acetyl-CoA and CoA were subsequently detected using a RapidFire 365 high-throughput SPE chromatography system coupled to a 6495 triple quadrupole mass spectrometer (Agilent Technologies) based on procedures described previously ([72], [73]). 42 uL of reaction timepoints were injected onto an Agilent C4 cartridge (40 μm, type A2) in 6 mM octylammonium acetate (GLSynthesis) and eluted with 25% acetonitrile, 25% acetone, and 50% 6 mM octylammonium acetate. RapidFire settings were as follows: aspiration time: 600 ms, load time: 4500 ms, elution time: 8000 ms, and re-equilibration time: 500 ms at a flow rate of 0.8 ml/min.
(§2) Samples were eluted into an Agilent 6495 triple quadrupole mass spectrometer with an Agilent Jet Stream source with ion funnel technology, set in the positive ion mode. A multiple reaction monitoring (MRM) protocol was optimized employing Q1 m/z ratios of 810.1 and 768.05 for acetyl-CoA and CoA, respectively. A second quadruple (Q2) was determined, using house nitrogen as the collision gas (fragmentor voltage = 380 V, collision energy = 30 V) with m/z values of 303.1 and 261.0 for acetyl-CoA and CoA, respectively.
(§3) Area under the curve (AUC) for acetyl-CoA and CoA were quantitated using RapidFire Integrator software (Agilent). The concentration of CoA was calculated from fraction (CoA) (AUC^CoA/(AUC^Acetyl-CoA + AUC^CoA)) multiplied by the concentration of acetyl-CoA used in acetyltransferase assays.
(§4) The active enzyme concentration for each form of KAT6A was obtained through tight-binding inhibition ([48]) by PF-9363, which binds to the KAT6A MYST domain with an inhibition constant (Ki) of ≈0.3 nM ([6]). Each form of KAT6A was incubated with acetyl-CoA (1–2 μM) and various concentrations of PF-9363 (0–1000 nM) for 15 to 30 min prior to initiating the reaction with H3 (1-21) (5–10 μM). The initial velocity measured at a given concentration of PF-9363 (Vi) was normalized with respect to the initial velocity in the absence of inhibitor (V0) and fit to Equation 1:(1) Vi/V0=1-([E]T+[I]+Ki,app)–([E]T+[I]+Ki,app)^2-4[E]T[I]/2[E]T where Ki,app is the apparent inhibition constant of PF-9363 and [E]T is the active enzyme concentration. The subscript “app” is included in Ki,app since acetyl-CoA competes with PF-9363 for binding to the MYST domain ([6]).
(§5) Reactions were performed under multiple-turnover conditions with excess AcCoA (20 μM) and peptide (1–3000 μM) relative to enzyme (10–100 nM). Reactions were followed for up to 20% product formation and linear fits of the data provided initial velocities (V), which were divided by the enzyme concentration ([E]T) determined from active site titration. V/[E]T was plotted as a function of [peptide] and fit by the Michaelis-Menten equation (Equation 2):(2) V/[E]T=kcat[peptide]/(KM+[peptide]) where kcat is the maximum rate of turnover and KM is the Michaelis-constant. To determine kcat/KM, the steady-state data were fit to a modified form of the Michaelis-Menten equation (Equation 3) ([58]):(3) V/[E]T=(kcat/KM)[peptide]/(1+(kcat/KM)[peptide]/kcat)
(§6) For H3 (10-17), H3 (19-26), and their chimeric peptides, exceedingly high peptide concentrations were needed to saturate acetyltransferase activity. The steady-state data were instead fit to a linear equation to obtain kcat/KM. Finally, for the KAT6A^FL 2- and 4-plexes as well as the MYST 2-plex, steady-state parameters include a superscript “app” to denote that they are apparent values since reactions with these forms of KAT6A may include unbound KAT6A^FL or MYST.

KAT6A^FL = KAT6A^FL (Homo sapiens, UniProt Q92794); assay: Steady-state acetyltransferase assay with H3 peptides, KAT6A^FL; settings: for (kcat/KM): 50 mM HEPES pH 7.5, 5 mM NaCl, 0.1 mM EDTA, 0.002% Tween-20, 20 μM AcCoA, 25 °C, average ± SD of 2 measurements; for Km: KM of peptide at 20 μM AcCoA; for Km / kcat: conditions as E5
Protocol: as §1, §2, §3, §4, §5, §6

[2] = molecular target: MYST-BRPF1 2-protein complex (MYST 2-plex) (Homo sapiens, UniProt P55201+Q92794); assay: Steady-state acetyltransferase assay with H3 peptides, MYST 2-plex; settings: for (kcat/KM)^app: 50 mM HEPES pH 7.5, 5 mM NaCl, 0.1 mM EDTA, 0.002% Tween-20, 20 μM AcCoA, 25 °C, average ± SD of 2 measurements, apparent value; for Km / kcatapp: conditions as E17; for fold-change in (kcat/KM)^app for H3.3 (15-36) versus H3 (1-21) or H3 (19-26) versus H3 (10-17): values in parentheses of Table 3
Protocol: as §1, §2, §3, §4, §5, §6

[3] = molecular target: KAT6A^FL 4-plex (KAT6A^FL, BRPF1, ING5, MEAF6) (Homo sapiens, UniProt P55201+Q8WYH8+Q92794+Q9HAF1); assay: Steady-state acetyltransferase assay with H3 peptides, KAT6A^FL 4-plex; settings: for (kcat/KM)^app: 50 mM HEPES pH 7.5, 5 mM NaCl, 0.1 mM EDTA, 0.002% Tween-20, 20 μM AcCoA, 25 °C, average ± SD of 2 measurements, apparent value; for Km / kcatapp: conditions as E9
Protocol: as §1, §2, §3, §4, §5, §6

[4] = molecular target: KAT6A MYST domain (KAT6A 501–784) (Homo sapiens, UniProt Q92794); assay: Steady-state acetyltransferase assay with H3 peptides, KAT6A MYST domain; settings: for (kcat/KM): 50 mM HEPES pH 7.5, 5 mM NaCl, 0.1 mM EDTA, 0.002% Tween-20, 20 μM AcCoA, 25 °C, CoA by RapidFire MS, average ± SD of 2 measurements; for Km: KM of peptide at 20 μM AcCoA, conditions as E1; for kcat: conditions as E1, average ± SD of 2 measurements; for fold-change in (kcat/KM) for H3.3 (15-36) versus H3 (1-21) or H3 (19-26) versus H3 (10-17): decrease for K23 peptide relative to K14 peptide
Protocol: as §1, §2, §3, §4, §5, §6

Compound | fold less efficient acetylation compared to H3 (1-21) and H3.3 (15-36) [1] | (kcat/KM)^app [1] | Km [1] | kcatapp [1] | fold-change in (kcat/KM)^app for H3.3 (15-36) versus H3 (1-21) or H3 (19-26) versus H3 (10-17) [1] | fold lower kcat/KM on truncation of H3 (1-21) to H3 (10-17) and H3.3 (15-36) to H3 (19-26) (KAT6A^FL) | (kcat/KM) (KAT6A^FL) | Km (KAT6A^FL) | kcat (KAT6A^FL) | (kcat/KM)^app [2] | Km [2] | kcatapp [2] | fold-change in (kcat/KM)^app for H3.3 (15-36) versus H3 (1-21) or H3 (19-26) versus H3 (10-17) [2] | fold lower (kcat/KM)^app on truncation of H3 (1-21) to H3 (10-17) and H3.3 (15-36) to H3 (19-26) [3] | (kcat/KM)^app [3] | Km [3] | kcatapp [3] | (kcat/KM) [4] | Km [4] | kcat [4] | further results
C[C@H](NC(=O)[C@H](CCCCN)NC(=O)CNC(=O)CNC(=O)[C@@H](NC(=O)[C@@H](N)CO)[C@@H](C)O)C(=O)N1CCC[C@H]1C(=O)N[C@@H](CCCNC(=N)N)C(=O)O | approximately 10^3 fold | 6.5 M⁻¹ s⁻¹ and 6.5 ± 1 M⁻¹ s⁻¹ | ≥ 1000 µM | ≥0.012 s⁻¹ | 1 fold | 2470 fold | 9.83 ± 5 M⁻¹ s⁻¹ | ≥ 1000 µM | ≥0.0267 s⁻¹ | 11.2 ± 1 M⁻¹ s⁻¹ | ≥ 1000 µM | ≥0.0233 s⁻¹ | 1 fold | 1900 fold | 5 ± 1.2 M⁻¹ s⁻¹ | ≥ 1000 µM | ≥0.00667 s⁻¹ | 31.7 ± 8.3 M⁻¹ s⁻¹ | ≥ 1000 µM | ≥0.0583 s⁻¹ | fold-change in (kcat/KM) for H3.3 (15-36) versus H3 (1-21) or H3 (19-26) versus H3 (10-17) (KAT6A^FL; decrease for K23 peptide relative to K14 peptide): 1 fold; fold-change in (kcat/KM)^app for H3.3 (15-36) versus H3 (1-21) or H3 (19-26) versus H3 (10-17) ([3]; values in parentheses of Table 3): 1 fold; fold-change in (kcat/KM) for H3.3 (15-36) versus H3 (1-21) or H3 (19-26) versus H3 (10-17) [4]: 1 fold
CC(C)C[C@H](NC(=O)[C@@H](N)CCC(N)=O)C(=O)N[C@@H](C)C(=O)N[C@H](C(=O)N[C@@H](CCCCN)C(=O)N[C@@H](C)C(=O)N[C@@H](C)C(=O)N[C@@H](CCCNC(=N)N)C(=O)O)[C@@H](C)O | approximately 10^3 fold | 23.3 M⁻¹ s⁻¹ and 23.3 ± 3.3 M⁻¹ s⁻¹ | ≥ 1000 µM | ≥0.0367 s⁻¹ | 0.28 fold | 700 fold | 0.267 ± 0.033 M⁻¹ s⁻¹ | ≥ 1000 µM | ≥0.00125 s⁻¹ | 3 ± 1.2 M⁻¹ s⁻¹ | ≥ 1000 µM | ≥0.00767 s⁻¹ | 4 fold | 4930 fold | 18.3 ± 3.3 M⁻¹ s⁻¹ | ≥ 1000 µM | ≥0.0333 s⁻¹ | 0.683 ± 0.1 M⁻¹ s⁻¹ | ≥ 1000 µM | ≥0.00147 s⁻¹ | fold-change in (kcat/KM) for H3.3 (15-36) versus H3 (1-21) or H3 (19-26) versus H3 (10-17) [4]: 50 fold
